Tests used:
[1] = general procedure: Fmoc solid-phase peptide synthesis; Knorr amide resin (0.45 mmol/g); also Rink MBHA, DOD, Wang, PEG-PS HMPA resin; TBTU/1-hydroxybenzotriazole/DIEA in NMP; Pfp esters; settings: whole synthesis, scale of the general procedure 0.25 mmol, polyhydrated polytrifluoroacetates; for final purity (method not given): capillary electrophoresis
[2] = general procedure: Fmoc solid-phase peptide synthesis; Wang; TBTU/1-hydroxybenzotriazole/DIEA in NMP; Pfp esters; settings: whole synthesis, HPLC peak relative integration at 215-220 nm, scale of the general procedure 0.25 mmol, polyhydrated polytrifluoroacetates
[3] = general procedure: Fmoc solid-phase peptide synthesis; Knorr resin; TBTU/1-hydroxybenzotriazole/DIEA in NMP; Pfp esters; settings: whole synthesis, scale 0.25 mmol, polyhydrated polytrifluoroacetates
[4] = peptide synthesis; settings: whole synthesis, polyhydrated polytrifluoroacetates
[5] = general procedure: Fmoc solid-phase peptide synthesis; Rink MBHA; TBTU/1-hydroxybenzotriazole/DIEA in NMP; Pfp esters; settings: whole synthesis, scale 0.5 mmol, polyhydrated polytrifluoroacetates
[6] = HPLC peak relative integration at 215-220 nm

Substance	final HPLC purity [1, 6] [%]	other results
C6 H11 --CE2 --CO--Tyr(PO3 H2)--Val--Asn--Val--NH2	–	final purity (method not given) [1]: 75%
H--Tyr (PO3 H2)--Val--Asn--Val--Lys--OH	99.0	–
Ac--Tyr(PO3 H2)--Val--Asn--Val--Gln--NH2	96.5	–
Ac--Tyr (PO3 H2)--Val--Asn--Val--Ser--NH2	99.1	–
6-biotinamido-hexanoyl-Tyr (PO3 H2)--Val--Asn--Val--NH2	98.8	–
CH3 --(CH2)6 --CO--Tyr (PO3 H2)--Val--Asn--Val--NH2	–	final purity (method not given) [1]: 72%
Ac--Tyr (PO3 H2)--Ile--Asn--Gln--Ser--NH2	99.3	–
Ac--Tyr (PO3 H2)--Val--Asn--Ile--Glu--NH2	99.0	–
Ac--Tyr (PO3 H2)--Val--Asn--Val--OH	–	final HPLC purity [2]: 99.3%
6-biotinamido-hexanoyl--Gly--Gly--Gly--Gly--Gly--Ile--Gly--Glu--Bis--Tyr (PO3 B)--Val--His--Val--Asn--Ala--Thr--Tyr(PO3 H)--Val--Asn--Val--Lys--OH	–	final HPLC purity ([1]; 220 nm): 91.5%
Ac--Tyr(PO3 Et2)--Val--Asn--Val--NH2	90.0	–
Ac--Tyr (PO3 H2)--Val--Asn--Val--Lys--NH2	96.4	–
CH3 --(CH2)12 --CO--Gly--Gly--Tyr(PO3 H2)--Val--Asn--Val--NH2	–	final purity (method not given) [1]: 95%
Ac--Tyr (PO3 H2)--Val--Asn--Val--NH2	99.9	isolated mass [3]: 64 mg
Ac--Tyr(PO3 HMe)--Val--Asn--Val--NH2	98.0	–
Ac--Tyr (PO3 Me2)--Val--Asn--Val--NH2	97.0	–
CH3 --(CH2)12 --CO--Tyr (PO3 H2)--Val--Asn--Val--NE2	–	final purity (method not given) [1]: 95%
6-biotinamido-hexanoyl--Gly--Gly--Gly--Gly--Gly--Ile--Gly--Glu--His--Tyr-- Val--His--Val--Asn--Ala--Thr--Tyr(PO3 H)--Val--Asn--Val--Lys--OH	–	final HPLC purity [4]: 91.8%
Ac--Phe (CH2 SO3 H)--Val--Asn--Val--NH2	97.0	–
Ac--Tyr (PO3 H2)--Val--Asn--Val--Lys (Ac)--NH2	98.9	–
Ac--Phe(p--CH2 PO3 H2)--Val--Asn--Val--NH2	98.0	crude mass [5]: 270 mg
Ac--Phe--Val--Asn--Val--OH	97.6	–
Ac--Phe (CH2 PO3 H2)--Val--Asn--Val--Lys--NH2	99.1	–
Ac--Tyr (PO3 H2) --Ile--Asn--Ile--Lys--NH2	93.0	–
